Article PMC5827551
No constants are given. Whether binding was seen depends on the method and setting. Binding seen in cells or lysates may run through a third protein. Some entries that bind do so weakly or less than the wild type.

Sequences of proteins named here, by UniProt entry; tags and fusion partners are left off.
UniProt P09429: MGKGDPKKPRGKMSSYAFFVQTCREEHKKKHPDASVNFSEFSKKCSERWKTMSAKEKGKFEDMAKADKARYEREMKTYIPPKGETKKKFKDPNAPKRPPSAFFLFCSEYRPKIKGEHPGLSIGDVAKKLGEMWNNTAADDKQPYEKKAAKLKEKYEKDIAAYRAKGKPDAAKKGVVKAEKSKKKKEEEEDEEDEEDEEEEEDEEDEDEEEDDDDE
UniProt P63158: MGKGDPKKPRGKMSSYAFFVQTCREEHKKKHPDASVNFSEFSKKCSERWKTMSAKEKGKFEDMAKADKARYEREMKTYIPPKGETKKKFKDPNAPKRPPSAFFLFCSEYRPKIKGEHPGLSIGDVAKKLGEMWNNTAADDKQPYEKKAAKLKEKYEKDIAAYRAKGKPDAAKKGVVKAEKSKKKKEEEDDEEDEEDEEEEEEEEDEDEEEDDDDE
UniProt P09211: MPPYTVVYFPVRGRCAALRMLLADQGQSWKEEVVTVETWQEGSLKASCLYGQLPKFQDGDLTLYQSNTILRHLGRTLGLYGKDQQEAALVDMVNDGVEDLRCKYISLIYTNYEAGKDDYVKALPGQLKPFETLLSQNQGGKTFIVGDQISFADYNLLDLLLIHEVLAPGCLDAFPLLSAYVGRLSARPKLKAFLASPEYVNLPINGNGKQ
UniProt Q6P5F9: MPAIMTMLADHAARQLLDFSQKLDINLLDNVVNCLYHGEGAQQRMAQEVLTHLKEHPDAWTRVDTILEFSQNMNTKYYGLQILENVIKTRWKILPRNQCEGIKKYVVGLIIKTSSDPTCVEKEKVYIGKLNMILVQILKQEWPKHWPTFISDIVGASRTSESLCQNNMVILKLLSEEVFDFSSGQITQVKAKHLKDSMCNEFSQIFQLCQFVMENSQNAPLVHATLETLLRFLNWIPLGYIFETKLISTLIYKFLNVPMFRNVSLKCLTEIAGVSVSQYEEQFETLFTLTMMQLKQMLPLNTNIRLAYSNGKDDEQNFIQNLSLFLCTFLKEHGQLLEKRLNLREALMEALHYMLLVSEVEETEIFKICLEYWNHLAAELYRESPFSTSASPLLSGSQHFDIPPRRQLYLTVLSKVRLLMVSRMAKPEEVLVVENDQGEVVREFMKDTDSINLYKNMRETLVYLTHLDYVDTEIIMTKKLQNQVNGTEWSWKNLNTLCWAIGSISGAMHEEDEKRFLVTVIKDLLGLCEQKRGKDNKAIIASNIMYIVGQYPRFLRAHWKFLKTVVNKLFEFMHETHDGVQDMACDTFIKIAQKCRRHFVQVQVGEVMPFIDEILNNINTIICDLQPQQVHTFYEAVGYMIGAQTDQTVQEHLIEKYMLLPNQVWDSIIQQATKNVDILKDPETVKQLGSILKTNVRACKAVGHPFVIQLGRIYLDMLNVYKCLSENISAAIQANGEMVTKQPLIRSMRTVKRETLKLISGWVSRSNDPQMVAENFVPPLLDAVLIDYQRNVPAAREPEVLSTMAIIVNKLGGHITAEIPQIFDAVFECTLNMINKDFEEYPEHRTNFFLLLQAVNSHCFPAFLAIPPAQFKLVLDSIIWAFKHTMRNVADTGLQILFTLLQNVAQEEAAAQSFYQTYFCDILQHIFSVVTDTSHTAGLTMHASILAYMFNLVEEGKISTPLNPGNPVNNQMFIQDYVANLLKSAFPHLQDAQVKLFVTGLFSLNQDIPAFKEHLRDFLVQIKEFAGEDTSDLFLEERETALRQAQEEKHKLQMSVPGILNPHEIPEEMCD

Columns and labels:
[1] = molecular target: His-HMGB1, recombinant polyhistidine-tagged (UniProt P09429); assay: pull-down; His-HMGB1 immobilised on Ni2+-IDA-agarose beads, incubated with lysates of HEK293 cells transfected with Flag-GSTP (WT or mutants), lysis buffer, 4°C, 8 h; immunoblotting; only the target purified
[2] = molecular target: High mobility group box-1 protein (HMGB1), endogenous in RAW264.7 cells (mouse (endogenous in RAW264.7)) (UniProt P63158); assay: co-IP; nuclear extracts of RAW264.7 cells transfected with Flag-GSTP or empty vector, LPS (500 ng/ml) for indicated time; immunoprecipitation with anti-HMGB1 or anti-Flag antibody and protein A/G plus-agarose at 4°C overnight, immunoblotting
[3] = molecular target: His-GSTP (WT), recombinant polyhistidine-tagged (UniProt P09211); assay: pull-down; His-GSTP (WT or mutants) immobilised on Ni2+-IDA-agarose beads, incubated with lysates of HEK293 cells transfected with Flag-HMGB1, lysis buffer, 4°C, 8 h; immunoblotting with anti-His or anti-Flag; only the target purified
[4] = molecular target: High mobility group box-1 protein (HMGB1), endogenous in RAW264.7 cells (mouse (endogenous in RAW264.7)) (UniProt P63158); assay: co-IP; whole cell lysates of RAW264.7 cells transfected with Flag-GSTP or empty vector, LPS (500 ng/ml) for 0-30 min or 6 h, also PMA (100 nM) and GF109203X (10 µM) pretreatment; immunoprecipitation with anti-Flag, anti-cPKC or anti-HMGB1 antibody, immunoblotting

Substance: Flag-GSTP (WT), expressed in HEK293 cells (from UniProt P09211 1-210) (enzyme)
- binding [1]: binds

Substance: Flag-GSTP (glutathione S-transferase Pi, wild type), expressed in RAW264.7 cells (from UniProt P09211 1-210) (enzyme)
- binding [2]: binds

Substance: Flag-HMGB1, expressed in HEK293 cells (from UniProt P09429 1-215)
- binding [3]: binds

Substance: chromosomal region maintenance 1 (CRM1), endogenous in RAW264.7 cells (from UniProt Q6P5F9 1-1071)
- binding [4]: binds
